Compound in the assay: Nc1ncnc2c1ncn2[C@@H]1O[C@H](COP(=O)(O)OP(=O)(O)OP(=O)(O)O)[C@@H](O)[C@H]1O [adenosine triphosphate]
Put plainly: NP40-soluble protein abundance relative to vehicle (solubility fold change) (ratio); higher = more soluble protein in presence of ATP. Summed up:
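Each value is a fold change relative to the detergent-processed vehicle, calculated per replicate from vsn-normalised intensities. Jurkat crude lysate received eight concentrations (0.1 to 10 mM) for 10 min at room temperature and 3 min at 37 °C, then was solubilised in 0.8% NP40 with benzonase (60 min, 4 °C). The ultracentrifuged supernatant was TMT-labelled and run by LC-MS/MS in three independent experiments.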

By UniProt entry, the sequences of proteins in these tests, tags left out. Where a name states a change or a piece, a line headed by the entry shows the natural chain unless it says otherwise.
UniProt Q14CB8: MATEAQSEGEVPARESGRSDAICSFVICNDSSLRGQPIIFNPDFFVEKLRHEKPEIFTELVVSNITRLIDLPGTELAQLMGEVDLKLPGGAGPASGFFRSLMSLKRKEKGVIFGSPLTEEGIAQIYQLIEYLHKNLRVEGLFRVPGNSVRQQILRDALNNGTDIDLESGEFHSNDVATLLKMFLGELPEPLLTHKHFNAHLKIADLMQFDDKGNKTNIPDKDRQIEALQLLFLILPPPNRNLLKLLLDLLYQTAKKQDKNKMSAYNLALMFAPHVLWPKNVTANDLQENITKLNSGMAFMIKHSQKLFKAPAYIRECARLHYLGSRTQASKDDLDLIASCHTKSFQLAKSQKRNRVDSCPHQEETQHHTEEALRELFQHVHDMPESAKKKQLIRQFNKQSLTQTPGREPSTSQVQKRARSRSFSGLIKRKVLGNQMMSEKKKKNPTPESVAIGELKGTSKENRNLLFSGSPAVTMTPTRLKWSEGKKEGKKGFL
UniProt Q49B96: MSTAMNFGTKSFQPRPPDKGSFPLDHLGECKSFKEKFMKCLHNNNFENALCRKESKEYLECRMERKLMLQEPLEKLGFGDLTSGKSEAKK
UniProt Q15050: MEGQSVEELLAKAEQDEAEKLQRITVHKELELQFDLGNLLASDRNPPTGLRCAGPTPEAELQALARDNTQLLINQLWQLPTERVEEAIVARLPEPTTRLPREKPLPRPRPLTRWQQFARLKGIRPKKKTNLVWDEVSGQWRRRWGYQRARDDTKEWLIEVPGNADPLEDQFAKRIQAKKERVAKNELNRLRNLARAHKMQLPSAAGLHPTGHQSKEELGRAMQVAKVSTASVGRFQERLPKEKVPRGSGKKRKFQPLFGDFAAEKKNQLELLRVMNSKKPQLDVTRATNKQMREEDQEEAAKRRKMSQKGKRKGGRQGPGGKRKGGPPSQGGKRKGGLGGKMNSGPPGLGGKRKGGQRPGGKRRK
UniProt Q14376: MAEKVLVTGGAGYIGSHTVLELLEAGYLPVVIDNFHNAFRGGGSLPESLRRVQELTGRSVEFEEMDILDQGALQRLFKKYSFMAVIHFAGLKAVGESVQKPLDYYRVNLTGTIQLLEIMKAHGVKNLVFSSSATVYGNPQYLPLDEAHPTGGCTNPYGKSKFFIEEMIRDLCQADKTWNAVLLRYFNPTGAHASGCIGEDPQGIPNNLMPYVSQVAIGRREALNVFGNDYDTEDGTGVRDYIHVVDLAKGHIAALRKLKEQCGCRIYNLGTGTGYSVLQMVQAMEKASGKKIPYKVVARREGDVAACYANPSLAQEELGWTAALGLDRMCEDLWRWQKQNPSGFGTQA
UniProt Q15544, whole entry: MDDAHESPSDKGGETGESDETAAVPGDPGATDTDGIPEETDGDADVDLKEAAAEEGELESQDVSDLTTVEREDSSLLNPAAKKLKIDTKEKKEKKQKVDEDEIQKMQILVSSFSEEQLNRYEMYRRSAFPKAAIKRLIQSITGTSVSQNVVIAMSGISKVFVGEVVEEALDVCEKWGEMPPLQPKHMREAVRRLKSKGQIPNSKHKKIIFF
UniProt Q16186: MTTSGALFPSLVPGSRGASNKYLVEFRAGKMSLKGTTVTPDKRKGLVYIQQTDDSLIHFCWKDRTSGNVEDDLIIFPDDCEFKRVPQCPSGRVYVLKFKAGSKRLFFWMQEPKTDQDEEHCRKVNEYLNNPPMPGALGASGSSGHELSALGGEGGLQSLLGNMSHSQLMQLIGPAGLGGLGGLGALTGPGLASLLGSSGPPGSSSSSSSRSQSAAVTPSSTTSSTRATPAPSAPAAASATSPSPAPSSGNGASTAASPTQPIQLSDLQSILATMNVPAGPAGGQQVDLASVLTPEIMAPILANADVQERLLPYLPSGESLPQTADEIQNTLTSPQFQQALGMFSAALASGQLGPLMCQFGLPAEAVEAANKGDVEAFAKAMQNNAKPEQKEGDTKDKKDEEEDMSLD
UniProt Q32P41: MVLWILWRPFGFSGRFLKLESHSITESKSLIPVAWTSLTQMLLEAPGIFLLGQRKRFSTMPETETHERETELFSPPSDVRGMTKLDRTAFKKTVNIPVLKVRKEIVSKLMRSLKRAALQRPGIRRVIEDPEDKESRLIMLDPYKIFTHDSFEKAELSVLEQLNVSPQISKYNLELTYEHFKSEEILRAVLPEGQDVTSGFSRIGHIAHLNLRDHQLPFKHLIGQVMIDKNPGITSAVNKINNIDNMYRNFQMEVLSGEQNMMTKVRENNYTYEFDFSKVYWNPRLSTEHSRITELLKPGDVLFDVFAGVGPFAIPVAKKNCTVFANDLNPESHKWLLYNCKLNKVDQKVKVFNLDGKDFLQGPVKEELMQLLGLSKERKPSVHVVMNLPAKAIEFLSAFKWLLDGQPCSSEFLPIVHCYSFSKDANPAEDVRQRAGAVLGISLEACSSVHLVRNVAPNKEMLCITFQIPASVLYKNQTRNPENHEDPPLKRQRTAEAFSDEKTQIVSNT
UniProt Q15652: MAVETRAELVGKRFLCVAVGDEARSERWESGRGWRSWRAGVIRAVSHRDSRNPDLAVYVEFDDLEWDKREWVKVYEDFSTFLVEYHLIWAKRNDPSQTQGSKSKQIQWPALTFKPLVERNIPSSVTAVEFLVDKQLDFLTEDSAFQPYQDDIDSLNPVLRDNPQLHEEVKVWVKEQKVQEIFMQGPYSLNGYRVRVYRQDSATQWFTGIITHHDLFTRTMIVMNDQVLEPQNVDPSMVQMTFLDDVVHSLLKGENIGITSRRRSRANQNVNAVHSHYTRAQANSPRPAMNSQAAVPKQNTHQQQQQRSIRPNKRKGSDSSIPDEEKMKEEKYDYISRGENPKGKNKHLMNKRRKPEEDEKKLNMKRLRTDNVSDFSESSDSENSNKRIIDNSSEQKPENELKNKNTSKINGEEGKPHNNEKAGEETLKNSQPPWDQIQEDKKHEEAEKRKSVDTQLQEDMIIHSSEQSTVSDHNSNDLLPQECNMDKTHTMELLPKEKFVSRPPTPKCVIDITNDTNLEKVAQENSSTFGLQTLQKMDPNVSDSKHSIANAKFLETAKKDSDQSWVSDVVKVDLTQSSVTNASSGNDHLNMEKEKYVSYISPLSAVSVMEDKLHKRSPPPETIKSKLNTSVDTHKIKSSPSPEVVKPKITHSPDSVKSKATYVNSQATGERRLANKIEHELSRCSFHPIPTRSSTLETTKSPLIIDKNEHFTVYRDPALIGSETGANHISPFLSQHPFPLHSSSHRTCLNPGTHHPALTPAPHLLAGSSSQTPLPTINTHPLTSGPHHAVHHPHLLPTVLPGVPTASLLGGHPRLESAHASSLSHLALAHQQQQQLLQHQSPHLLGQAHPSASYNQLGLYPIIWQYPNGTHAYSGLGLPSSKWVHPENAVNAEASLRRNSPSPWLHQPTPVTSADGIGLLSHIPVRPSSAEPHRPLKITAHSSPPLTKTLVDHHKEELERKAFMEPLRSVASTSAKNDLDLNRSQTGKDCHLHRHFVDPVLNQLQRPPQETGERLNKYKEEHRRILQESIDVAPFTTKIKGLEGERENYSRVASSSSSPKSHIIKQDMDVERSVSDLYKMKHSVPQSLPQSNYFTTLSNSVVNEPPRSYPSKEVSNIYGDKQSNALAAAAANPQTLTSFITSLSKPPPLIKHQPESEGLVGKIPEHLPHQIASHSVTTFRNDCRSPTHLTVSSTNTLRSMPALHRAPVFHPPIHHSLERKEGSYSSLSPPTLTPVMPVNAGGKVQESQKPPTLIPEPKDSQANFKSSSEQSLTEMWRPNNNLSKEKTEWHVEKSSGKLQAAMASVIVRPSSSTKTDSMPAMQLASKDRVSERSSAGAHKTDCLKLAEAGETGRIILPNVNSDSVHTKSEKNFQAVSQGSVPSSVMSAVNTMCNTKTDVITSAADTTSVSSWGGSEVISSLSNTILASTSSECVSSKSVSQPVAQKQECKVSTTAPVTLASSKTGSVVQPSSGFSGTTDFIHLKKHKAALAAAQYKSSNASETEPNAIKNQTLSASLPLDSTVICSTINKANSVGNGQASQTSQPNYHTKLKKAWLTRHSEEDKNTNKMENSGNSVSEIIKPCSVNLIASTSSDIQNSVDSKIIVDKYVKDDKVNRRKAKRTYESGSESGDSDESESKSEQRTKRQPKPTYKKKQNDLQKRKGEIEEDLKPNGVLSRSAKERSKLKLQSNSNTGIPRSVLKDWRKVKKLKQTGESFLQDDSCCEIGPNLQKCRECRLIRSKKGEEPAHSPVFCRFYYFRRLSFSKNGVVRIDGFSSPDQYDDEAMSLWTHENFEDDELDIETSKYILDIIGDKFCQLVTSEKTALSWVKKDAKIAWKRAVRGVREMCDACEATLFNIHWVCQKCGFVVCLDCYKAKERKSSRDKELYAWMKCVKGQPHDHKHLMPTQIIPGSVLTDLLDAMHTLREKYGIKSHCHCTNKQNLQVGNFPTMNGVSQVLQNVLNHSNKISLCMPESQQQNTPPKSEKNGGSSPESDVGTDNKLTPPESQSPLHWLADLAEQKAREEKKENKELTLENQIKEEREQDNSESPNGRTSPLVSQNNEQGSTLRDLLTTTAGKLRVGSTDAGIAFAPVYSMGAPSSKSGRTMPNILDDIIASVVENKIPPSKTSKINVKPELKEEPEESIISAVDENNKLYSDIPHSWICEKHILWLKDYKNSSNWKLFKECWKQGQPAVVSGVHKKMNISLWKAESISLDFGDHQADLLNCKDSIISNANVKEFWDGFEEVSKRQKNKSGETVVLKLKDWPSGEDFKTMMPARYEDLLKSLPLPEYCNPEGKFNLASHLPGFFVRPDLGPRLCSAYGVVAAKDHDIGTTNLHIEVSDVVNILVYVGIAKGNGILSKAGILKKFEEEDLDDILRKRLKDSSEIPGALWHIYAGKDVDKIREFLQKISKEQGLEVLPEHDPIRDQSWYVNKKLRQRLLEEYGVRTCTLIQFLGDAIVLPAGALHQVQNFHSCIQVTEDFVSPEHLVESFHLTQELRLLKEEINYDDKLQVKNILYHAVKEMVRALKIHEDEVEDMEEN
UniProt Q15363: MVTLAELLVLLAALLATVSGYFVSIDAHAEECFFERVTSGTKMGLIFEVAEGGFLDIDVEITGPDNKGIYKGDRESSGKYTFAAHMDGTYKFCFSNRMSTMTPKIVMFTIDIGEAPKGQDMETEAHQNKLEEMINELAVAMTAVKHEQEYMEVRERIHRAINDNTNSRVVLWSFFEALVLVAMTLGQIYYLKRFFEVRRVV
UniProt Q3MII6: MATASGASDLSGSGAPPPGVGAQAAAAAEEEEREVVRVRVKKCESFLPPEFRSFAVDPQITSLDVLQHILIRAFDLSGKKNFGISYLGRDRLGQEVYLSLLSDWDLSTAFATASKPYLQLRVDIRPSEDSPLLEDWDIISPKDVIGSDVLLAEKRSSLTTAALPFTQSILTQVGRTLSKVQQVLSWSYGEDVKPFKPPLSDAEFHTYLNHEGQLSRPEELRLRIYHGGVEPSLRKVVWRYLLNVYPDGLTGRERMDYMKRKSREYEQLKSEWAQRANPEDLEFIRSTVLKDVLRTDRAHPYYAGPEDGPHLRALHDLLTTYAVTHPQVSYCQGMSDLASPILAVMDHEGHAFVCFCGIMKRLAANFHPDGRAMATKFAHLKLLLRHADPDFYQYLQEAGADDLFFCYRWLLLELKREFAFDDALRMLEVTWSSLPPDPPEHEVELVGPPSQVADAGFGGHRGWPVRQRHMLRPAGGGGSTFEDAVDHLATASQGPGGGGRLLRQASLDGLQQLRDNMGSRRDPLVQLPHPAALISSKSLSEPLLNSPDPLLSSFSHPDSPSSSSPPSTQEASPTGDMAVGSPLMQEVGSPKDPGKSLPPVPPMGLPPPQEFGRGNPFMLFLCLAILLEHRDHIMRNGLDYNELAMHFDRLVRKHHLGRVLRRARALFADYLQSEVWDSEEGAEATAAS
UniProt Q2T9J0: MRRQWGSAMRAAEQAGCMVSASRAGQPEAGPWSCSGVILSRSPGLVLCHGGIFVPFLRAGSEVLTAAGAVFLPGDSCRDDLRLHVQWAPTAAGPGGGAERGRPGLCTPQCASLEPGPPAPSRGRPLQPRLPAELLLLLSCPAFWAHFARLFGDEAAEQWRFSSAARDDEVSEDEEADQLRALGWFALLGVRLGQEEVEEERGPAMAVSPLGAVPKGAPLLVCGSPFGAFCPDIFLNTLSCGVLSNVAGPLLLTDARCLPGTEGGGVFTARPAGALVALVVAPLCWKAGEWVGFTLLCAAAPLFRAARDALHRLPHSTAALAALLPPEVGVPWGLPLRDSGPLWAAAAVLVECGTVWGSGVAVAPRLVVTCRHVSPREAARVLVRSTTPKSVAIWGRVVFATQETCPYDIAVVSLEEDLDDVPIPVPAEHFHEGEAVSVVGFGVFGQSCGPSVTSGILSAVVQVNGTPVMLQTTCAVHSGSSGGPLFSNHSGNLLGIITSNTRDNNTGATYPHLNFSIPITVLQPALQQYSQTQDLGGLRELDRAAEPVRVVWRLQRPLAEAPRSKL

± gives the standard deviation of the averaged measurements. The list shows a part of the results, in another mix than the full data. Most entries show no effect beyond the scatter of the controls.

For the target UniProt Q14CB8 and related entries, the NP40-soluble protein abundance is, setting by setting: (concentration: 0.1mM) 1.08 ± 0.077; (concentration: 0.5mM) 1.26 ± 0.11.
Consider COX19 (UniProt Q49B96), for which the NP40-soluble protein abundance is, setting by setting: (concentration: 0.1mM) 1 ± 0.029; (concentration: 0.5mM) 1.03 ± 0.099.
Turning to UniProt Q16659, the NP40-soluble protein abundance runs as follows: (concentration: 0.1mM) 0.995 ± 0.045; (concentration: 0.5mM) 0.944 ± 0.11.
The like results for NDUFA9 (UniProt Q16795) were, in that order, 1.04 ± 0.084 and 1.06 ± 0.064.
Take RRS1 (UniProt Q15050): the NP40-soluble protein abundance (concentration: 0.1mM) came out at 0.965 ± 0.12 and the NP40-soluble protein abundance (concentration: 0.5mM) is 0.956 ± 0.067.
With RCN1 (UniProt Q15293), the NP40-soluble protein abundance amounted to 1 ± 0.023 (concentration: 0.1mM) and 0.9875 ± 0.0064 (concentration: 0.5mM).
As for UniProt Q15813 and related entries, the NP40-soluble protein abundance is, setting by setting: (concentration: 0.1mM) 1.03 ± 0.035; (concentration: 0.5mM) 1.03 ± 0.043.
GALE (UniProt Q14376): the NP40-soluble protein abundance is, setting by setting: (concentration: 0.1mM) 1.04 ± 0.05; (concentration: 0.5mM) 0.988 ± 0.019.
In the case of UniProt Q14534 and related entries, the NP40-soluble protein abundance by setting is: (concentration: 0.1mM) 1.04 ± 0.074; (concentration: 0.5mM) 1.05 ± 0.014.
In the case of UniProt Q14697 and related entries, the NP40-soluble protein abundance is 1.04 ± 0.068 (concentration: 0.1mM) and 1.01 ± 0.049 (concentration: 0.5mM).
Take EIF2B1 (UniProt Q14232): the NP40-soluble protein abundance reads like this: (concentration: 0.1mM) 0.9498 ± 0.008; (concentration: 0.5mM) 0.947 ± 0.032.
For HERC1 (UniProt Q15751), the NP40-soluble protein abundance reads like this: (concentration: 0.1mM) 1.05 ± 0.028; (concentration: 0.5mM) 1.02 ± 0.054.
As for UniProt Q15544 and related entries, the NP40-soluble protein abundance runs as follows: (concentration: 0.1mM) 0.999 ± 0.027; (concentration: 0.5mM) 0.937 ± 0.067.
As for PPP2R5A (UniProt Q15172), the NP40-soluble protein abundance (concentration: 0.1mM) came to 1.04 ± 0.016 and the NP40-soluble protein abundance (concentration: 0.5mM) stood at 1.04 ± 0.015.
Regarding “UniProt Q14790-2|Q14790-4|Q14790-6|Q14790-9|Q14790-5”, the NP40-soluble protein abundance (concentration: 0.1mM) is 1.05 ± 0.056 and the NP40-soluble protein abundance (concentration: 0.5mM) was determined as 1.07 ± 0.069.
As to RSU1 (UniProt Q15404), the NP40-soluble protein abundance (concentration: 0.1mM) turned out to be 1.03 ± 0.047 and the NP40-soluble protein abundance (concentration: 0.5mM) was found to be 1.01 ± 0.066.
Turning to UniProt Q15424 and related entries, the NP40-soluble protein abundance (concentration: 0.1mM) was 0.985 ± 0.063 and the NP40-soluble protein abundance (concentration: 0.5mM) is 0.945 ± 0.048.
With HAGH (UniProt Q16775), the NP40-soluble protein abundance runs as follows: (concentration: 0.1mM) 0.999 ± 0.058; (concentration: 0.5mM) 1.03 ± 0.029.
In the same order, the values of CD226 (UniProt Q15762) are 0.982 ± 0.082 and 0.81 ± 0.062.
On to ADRM1 (UniProt Q16186), for which the NP40-soluble protein abundance is, setting by setting: (concentration: 0.1mM) 0.875 ± 0.041; (concentration: 0.5mM) 0.841 ± 0.089.
In the same order, the values of TRMT5 (UniProt Q32P41) are 1.03 ± 0.05 and 1.03 ± 0.039.
In the case of UBE2S (UniProt Q16763), the NP40-soluble protein abundance was 0.984 ± 0.033 (concentration: 0.1mM) and 0.985 ± 0.011 (concentration: 0.5mM).
For UniProt Q15652 and related entries, the NP40-soluble protein abundance runs as follows: (concentration: 0.1mM) 1.009 ± 0.01; (concentration: 0.5mM) 1.03 ± 0.05.
On to NCOA6 (UniProt Q14686), for which the NP40-soluble protein abundance worked out at 0.96 ± 0.024 (concentration: 0.1mM) and 0.969 ± 0.04 (concentration: 0.5mM).
Take MORF4L2 (UniProt Q15014): the NP40-soluble protein abundance is, setting by setting: (concentration: 0.1mM) 1.02 ± 0.039; (concentration: 0.5mM) 1 ± 0.07.
As to TMED2 (UniProt Q15363), the NP40-soluble protein abundance by setting is: (concentration: 0.1mM) 1.1 ± 0.16; (concentration: 0.5mM) 1.11 ± 0.14.
UniProt Q15398-3|Q15398: the NP40-soluble protein abundance is 1.014 ± 0.0041 (concentration: 0.1mM) and 0.988 ± 0.057 (concentration: 0.5mM).
As for TBC1D25 (UniProt Q3MII6), the NP40-soluble protein abundance by setting is: (concentration: 0.1mM) 1.02 ± 0.051; (concentration: 0.5mM) 0.89 ± 0.099; (concentration: 1mM) 0.982 ± 0.059; (concentration: 2mM) 1.04 ± 0.11; (concentration: 4mM) 1.05 ± 0.16; (concentration: 6mM) 0.962 ± 0.095. For the same target, the NP40-soluble protein abundance turned out to be 1.01 ± 0.14 (concentration: 8mM) and 1 ± 0.15 (concentration: 10mM).
For TYSND1 (UniProt Q2T9J0), the NP40-soluble protein abundance worked out at 1.92 ± 0.89 (concentration: 0.1mM); 1.001 ± 0.0098 (concentration: 0.5mM); 0.977 ± 0.047 (concentration: 1mM); 0.983 ± 0.058 (concentration: 2mM); 0.995 ± 0.042 (concentration: 4mM); 0.947 ± 0.013 (concentration: 6mM). Besides, the NP40-soluble protein abundance (concentration: 8mM) is 0.974 ± 0.032 and the NP40-soluble protein abundance (concentration: 10mM) was 0.96 ± 0.076.
As for RABEP1 (UniProt Q15276), the NP40-soluble protein abundance reads like this: (concentration: 0.1mM) 0.958 ± 0.019; (concentration: 0.5mM) 0.985 ± 0.047; (concentration: 1mM) 0.942 ± 0.049; (concentration: 2mM) 0.944 ± 0.032; (concentration: 4mM) 0.928 ± 0.021; (concentration: 6mM) 0.995 ± 0.054. The NP40-soluble protein abundance is 0.895 ± 0.016 (concentration: 8mM) and 0.9135 ± 0.0042 (concentration: 10mM).

The record behind these values is the supplement of paper PMC6411743.
